No constants are given. Whether binding was seen depends on the method and setting. Binding seen in cells or lysates may run through a third protein. These calls come from enrichment with a bait or labelling near it, and not all partners need be listed. Where a sequence is shown, tags or fusion partners need not be part of it.
Target: T1, GFP::PAR-5 (C. elegans) (UniProt P41932)
T1 sequence: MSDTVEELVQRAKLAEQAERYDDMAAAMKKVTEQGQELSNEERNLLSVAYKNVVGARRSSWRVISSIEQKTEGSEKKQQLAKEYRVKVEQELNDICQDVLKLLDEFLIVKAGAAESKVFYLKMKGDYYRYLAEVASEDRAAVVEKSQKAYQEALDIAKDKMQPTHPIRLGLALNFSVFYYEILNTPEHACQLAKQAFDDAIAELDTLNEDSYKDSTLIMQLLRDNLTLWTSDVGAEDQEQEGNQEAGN
Test: affinity purification with mass spectrometry

Sequences of proteins named here, by UniProt entry; tags and fusion partners are left off.
UniProt Q95Q95: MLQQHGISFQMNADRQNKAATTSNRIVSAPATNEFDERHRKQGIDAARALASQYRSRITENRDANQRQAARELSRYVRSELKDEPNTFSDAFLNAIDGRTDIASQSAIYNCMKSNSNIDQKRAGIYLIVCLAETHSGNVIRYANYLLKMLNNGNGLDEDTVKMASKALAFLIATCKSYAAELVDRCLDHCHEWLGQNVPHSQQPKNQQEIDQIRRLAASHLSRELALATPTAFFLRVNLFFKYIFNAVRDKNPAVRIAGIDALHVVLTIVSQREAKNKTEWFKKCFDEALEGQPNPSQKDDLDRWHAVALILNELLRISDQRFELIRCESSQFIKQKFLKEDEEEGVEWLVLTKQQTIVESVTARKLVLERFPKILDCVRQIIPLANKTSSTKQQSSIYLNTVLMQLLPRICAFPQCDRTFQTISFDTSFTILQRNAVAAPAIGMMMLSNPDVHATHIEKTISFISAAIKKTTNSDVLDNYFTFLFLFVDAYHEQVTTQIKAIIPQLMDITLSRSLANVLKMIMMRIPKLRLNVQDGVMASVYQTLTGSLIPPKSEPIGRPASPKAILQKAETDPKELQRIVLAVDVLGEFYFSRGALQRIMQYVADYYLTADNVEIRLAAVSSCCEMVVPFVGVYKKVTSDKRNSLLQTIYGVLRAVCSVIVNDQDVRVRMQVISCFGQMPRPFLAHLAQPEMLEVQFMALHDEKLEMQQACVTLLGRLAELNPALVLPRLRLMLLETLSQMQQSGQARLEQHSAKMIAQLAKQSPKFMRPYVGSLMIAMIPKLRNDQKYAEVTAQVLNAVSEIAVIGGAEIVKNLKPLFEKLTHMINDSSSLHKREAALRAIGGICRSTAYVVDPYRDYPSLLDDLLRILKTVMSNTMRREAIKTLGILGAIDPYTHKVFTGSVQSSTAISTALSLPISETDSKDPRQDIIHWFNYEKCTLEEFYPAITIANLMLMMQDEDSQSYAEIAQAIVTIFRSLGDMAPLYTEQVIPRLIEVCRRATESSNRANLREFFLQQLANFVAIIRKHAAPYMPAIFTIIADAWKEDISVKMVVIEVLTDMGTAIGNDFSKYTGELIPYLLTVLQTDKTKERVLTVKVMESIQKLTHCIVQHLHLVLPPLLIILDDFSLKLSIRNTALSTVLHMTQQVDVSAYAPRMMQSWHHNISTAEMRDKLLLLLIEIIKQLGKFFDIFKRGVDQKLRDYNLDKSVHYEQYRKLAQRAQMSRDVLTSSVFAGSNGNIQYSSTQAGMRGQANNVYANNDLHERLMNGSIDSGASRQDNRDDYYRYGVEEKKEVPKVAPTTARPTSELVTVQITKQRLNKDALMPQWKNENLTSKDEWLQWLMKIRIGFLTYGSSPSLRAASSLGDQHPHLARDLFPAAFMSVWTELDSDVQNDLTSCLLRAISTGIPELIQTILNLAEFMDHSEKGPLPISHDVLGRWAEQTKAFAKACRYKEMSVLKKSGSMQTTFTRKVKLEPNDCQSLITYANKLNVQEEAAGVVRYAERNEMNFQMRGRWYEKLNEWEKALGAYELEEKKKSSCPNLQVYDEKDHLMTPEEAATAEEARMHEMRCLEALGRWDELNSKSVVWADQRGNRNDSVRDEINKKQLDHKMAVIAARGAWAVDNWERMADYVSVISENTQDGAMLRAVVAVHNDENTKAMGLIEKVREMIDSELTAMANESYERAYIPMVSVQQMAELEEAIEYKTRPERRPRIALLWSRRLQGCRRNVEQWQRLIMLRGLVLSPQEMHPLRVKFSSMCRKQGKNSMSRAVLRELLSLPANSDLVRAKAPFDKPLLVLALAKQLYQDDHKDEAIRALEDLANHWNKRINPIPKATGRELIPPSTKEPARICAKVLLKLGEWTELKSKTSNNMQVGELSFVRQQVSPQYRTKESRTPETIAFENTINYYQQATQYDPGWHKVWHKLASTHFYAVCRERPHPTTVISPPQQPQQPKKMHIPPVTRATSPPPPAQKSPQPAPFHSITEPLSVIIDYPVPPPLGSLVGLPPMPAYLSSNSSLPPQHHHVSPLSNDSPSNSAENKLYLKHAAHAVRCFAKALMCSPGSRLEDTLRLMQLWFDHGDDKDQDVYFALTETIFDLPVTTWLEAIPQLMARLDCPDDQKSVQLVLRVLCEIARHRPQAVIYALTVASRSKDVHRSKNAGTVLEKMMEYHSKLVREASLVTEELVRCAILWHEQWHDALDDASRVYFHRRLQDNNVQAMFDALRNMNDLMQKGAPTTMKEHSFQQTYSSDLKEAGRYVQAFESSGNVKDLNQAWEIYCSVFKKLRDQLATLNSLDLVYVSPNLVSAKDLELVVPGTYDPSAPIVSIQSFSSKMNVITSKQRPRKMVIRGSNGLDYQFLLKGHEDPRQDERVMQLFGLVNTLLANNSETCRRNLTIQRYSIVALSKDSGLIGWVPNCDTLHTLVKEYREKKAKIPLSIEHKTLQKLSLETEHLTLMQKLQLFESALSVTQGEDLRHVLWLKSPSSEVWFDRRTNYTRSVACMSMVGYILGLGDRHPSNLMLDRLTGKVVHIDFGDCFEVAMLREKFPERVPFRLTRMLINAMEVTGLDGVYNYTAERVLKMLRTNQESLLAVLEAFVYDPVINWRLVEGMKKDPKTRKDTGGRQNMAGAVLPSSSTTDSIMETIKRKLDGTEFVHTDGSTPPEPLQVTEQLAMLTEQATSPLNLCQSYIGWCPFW

Row | Substance | binding
1 | RICT-1 (C. elegans (endogenous in worms)) | binds
2 | LET-363 (from UniProt Q95Q95 1-2697) | binds

— publication doi:10.1101/2024.01.31.578330
